The target of one assay is T1, Flag-DNAJC5 (secreted) (UniProt Q9H3Z4).
T1 sequence: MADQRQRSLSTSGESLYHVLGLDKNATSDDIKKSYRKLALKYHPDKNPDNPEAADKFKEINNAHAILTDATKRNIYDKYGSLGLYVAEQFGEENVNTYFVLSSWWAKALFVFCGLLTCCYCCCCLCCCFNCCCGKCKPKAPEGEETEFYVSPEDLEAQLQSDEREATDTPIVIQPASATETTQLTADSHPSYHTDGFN
In words: co-IP; conditioned medium of transfected 293T cells; IP with Flag antibodies (Flag-DNAJC5 omitted as negative control) or, reciprocally, with GFP antibody; immunoblotting. (A western blot detects proteins with antibodies after separation by electrophoresis.)

A further assay deals with HA-GFP1-10 (secreted). The description is as above.

These are yes or no findings as the source states them, for the method shown. Binding seen in cells or lysates may run through a third protein. Binding can be weak; no strength is given. Where a sequence is shown, tags or fusion partners need not be part of it.

For the molecule “HA-GFP1-10 (secreted) (domain or fragment)”, the binding result with Flag-DNAJC5 (secreted) is recorded as “binds”.

B1: Flag-DNAJC5 (secreted) (protein, UniProt Q9H3Z4 1-198)
chain: T1 sequence
Turning to B1, the binding entry in the assay with HA-GFP1-10 (secreted) is reported as “binds”.
